In PubChem BioAssay AID743255 (National Center for Advancing Translational Sciences (NCATS), 2014):
Out of some 390,000 compounds screened, about 910 (0.23%) were called active. Inconclusive results, whose numbers are uncertain, are shown with a selection of clear calls. Calls follow the shape of the dose curve; as a rule, active = well fitted inhibition curve with a large enough effect; inconclusive = small, poorly fitted or top-dose-only effect; inactive = no such curve, though single readings can be large or run the other way. Potencies beside an inconclusive call are fits to weak or partial responses and may not hold up.

Amino acid sequences for entries named in this document (tags omitted). A change or cut given only in a name is not applied to a line headed by its entry.
UniProt O94782: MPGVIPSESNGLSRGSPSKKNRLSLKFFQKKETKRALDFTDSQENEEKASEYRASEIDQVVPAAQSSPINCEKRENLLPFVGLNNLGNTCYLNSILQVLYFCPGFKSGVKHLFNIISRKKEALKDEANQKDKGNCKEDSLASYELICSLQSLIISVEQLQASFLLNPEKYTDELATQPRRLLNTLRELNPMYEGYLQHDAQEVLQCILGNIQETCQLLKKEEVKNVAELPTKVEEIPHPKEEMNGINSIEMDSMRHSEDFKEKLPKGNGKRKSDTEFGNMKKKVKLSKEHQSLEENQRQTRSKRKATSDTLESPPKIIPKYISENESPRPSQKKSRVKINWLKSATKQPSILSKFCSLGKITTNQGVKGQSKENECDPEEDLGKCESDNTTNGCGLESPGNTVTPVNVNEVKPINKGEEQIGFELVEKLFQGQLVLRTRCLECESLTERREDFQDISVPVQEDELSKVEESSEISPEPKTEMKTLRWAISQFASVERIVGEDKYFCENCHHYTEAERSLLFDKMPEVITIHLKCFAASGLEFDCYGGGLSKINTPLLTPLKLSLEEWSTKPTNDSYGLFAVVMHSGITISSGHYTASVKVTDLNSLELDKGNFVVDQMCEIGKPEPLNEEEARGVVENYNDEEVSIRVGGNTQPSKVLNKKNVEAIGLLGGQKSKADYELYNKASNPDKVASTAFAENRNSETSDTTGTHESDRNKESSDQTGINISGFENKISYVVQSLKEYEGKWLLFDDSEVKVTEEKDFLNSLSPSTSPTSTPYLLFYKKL

molecular target: Ubiquitin carboxyl-terminal hydrolase 1 (Homo sapiens) (UniProt O94782); test: Inhibitors of USP1/UAF1: Primary Screen; conditions: recombinant USP1/UAF1, Ub-Rhodamine cleavage fluorescence; series mostly up to 57.1 µM; also: nearly all actives have a fitted effect of over 60% in size
Summary of the method: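 1 nM enzyme complex + cpd, 15 min RT; start with Ub-Rho 150nM final; kinetic fluorescence ex 480/em 540, 6 reads q60 s. Buffer 50mM HEPES pH 7.8, 0.5mM EDTA, 0.1 mg/ml BSA, 1mM TCEP, 0.01% Tween-20.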
Potency is read from the fitted curve at half-maximal effect.

Potency, inconclusive:
Cc1ccc(NC(=O)c2csc3c2CCCC3)cc1 35.5 µM [inhibitor, partial curve, poor fit]
CCOC(=O)C1CCN(C(=O)c2cnn(-c3ccc(F)cc3)c2-n2cccc2)CC1 35.5 µM [inhibitor, single point]
Cc1ccccc1OCCNC(=O)/C=C/c1ccc([N+](=O)[O-])cc1 17.8 µM [inhibitor, partial curve]
CCOc1ccc(CNC(=O)C2CCCN(c3nn4cc(-c5ccc(OC)cc5)nc4s3)C2)cc1 (stereo not drawn) 12.6 µM [inhibitor, partial curve, poor fit]
O=C(N/N=C/c1cc(Cl)c(O)c(Cl)c1)c1cc2c(ccc3ccccc32)o1 56.2 µM [inhibitor, partial curve, poor fit]
O=S(=O)(Nc1ccc(C(F)(F)F)cc1)c1cnc[nH]1 25.1 µM [inhibitor, partial curve]
Cc1ccc(CN2CCC(CNC(=O)c3cnn(-c4ccc(C)cc4)c3C3CCN(C(=O)OC(C)(C)C)CC3)CC2)cc1 3.55 µM [inhibitor, full curve]
COc1ccc(NC(=O)c2sc(SC)nc2N)cc1 0.794 µM [inhibitor, full curve, poor fit]
O=C(/C=C/c1ccco1)NC(=S)Nc1ccccc1N1CCCC1 17.8 µM [inhibitor, partial curve]
O=C(C[C@H]1C/C=C\C[C@H](NC(=O)OCC2c3ccccc3-c3ccccc32)C(=O)OC[C@@H]2CCCN2C1=O)NCCO 0.282 µM [inhibitor, full curve, poor fit]
O=c1oc2ccccc2c2c1ccc1ccccc12 5.62 µM [inhibitor, partial curve]
CC(C)C(NS(=O)(=O)c1ccc2c(c1)oc(=O)n2C)C(=O)N1CCN(c2ccccc2F)CC1 (stereo not drawn) 0.562 µM [inhibitor, full curve, poor fit]
O=C(CC1N=C2c3ccccc3N=C(SCc3cccc(F)c3)N2C1=O)NCc1cccs1 (stereo not drawn) 0.251 µM [inhibitor, full curve, poor fit]
Cc1ccc(Cl)cc1N1CCN(C(=O)C2CCC(=O)N2C(C)C)CC1 (stereo not drawn) 14.1 µM [inhibitor, partial curve, poor fit]
c1ccc(CSc2ncn[nH]2)nc1 2.24 µM [inhibitor, partial curve]
Cc1cc(Cl)ccc1NC(=S)NCc1ccccc1Cl 44.7 µM [inhibitor, partial curve, poor fit]
COc1ccc(Cn2ccc3nc(C)c(C(=O)N4CCN(c5ccc(F)cc5)CC4)cc3c2=O)cc1 5.01 µM [inhibitor, full curve, poor fit]
COc1ccc(/C=C/C(=O)N2c3ccccc3Sc3ccc(C(F)(F)F)cc32)cc1 35.5 µM [inhibitor, partial curve]
Cc1ccc(C2C=C(c3ccccc3)Nc3nc(NS(C)(=O)=O)nn32)cc1 (stereo not drawn) 7.94 µM [inhibitor, full curve, poor fit]
Cc1nn(S(=O)(=O)c2ccc(F)cc2)c(C)c1S(=O)(=O)N1CCCCCC1 50.1 µM [inhibitor, partial curve, poor fit]
CN(C(=O)CSc1nc(-c2ccccc2)cn1N)C(c1ccccc1)c1ccccc1 35.5 µM [inhibitor, single point]
COC(=O)C(=Cc1ccc(-c2ccsc2C(=O)OC)o1)C(=O)OC 0.708 µM [inhibitor, partial curve, poor fit]
CN(C)/C=C/C(=O)c1ccc(N2CCN(c3ncc(C(F)(F)F)cc3Cl)CC2)cc1 50.1 µM [inhibitor, partial curve, poor fit]
Cc1ccc(C(=O)Nc2ccccc2Oc2ccccc2)o1 79.4 µM [inhibitor, partial curve, poor fit]
[O-]/C(=C(\C(=S)Nc1ccccc1F)[n+]1ccccc1)c1ccc(OC(F)F)cc1 50.1 µM [inhibitor, partial curve, poor fit]
O=C(NC1=NCCS1)c1cccc(Br)c1 0.631 µM [inhibitor, full curve]
CCC(C)c1ccccc1NC(=O)c1cccc(-n2cnnn2)c1 (stereo not drawn) 35.5 µM [inhibitor, single point]

3 compounds drawn at random from those above:
Potency, inconclusive:
CN(C(=O)CSc1nc(-c2ccccc2)cn1N)C(c1ccccc1)c1ccccc1 35.5 µM [inhibitor, single point]
CCC(C)c1ccccc1NC(=O)c1cccc(-n2cnnn2)c1 (stereo not drawn) 35.5 µM [inhibitor, single point]
CC(C)C(NS(=O)(=O)c1ccc2c(c1)oc(=O)n2C)C(=O)N1CCN(c2ccccc2F)CC1 (stereo not drawn) 0.562 µM [inhibitor, full curve, poor fit]

Next part:

Potency, inactive:
COC(=O)C1=C(C)N(CCc2ccc(OC)c(OC)c2)C(=O)/C1=C\N(C)C
CC(=O)c1ccc(N(C)C)c2c(N(C)C)cccc12
CCc1ccccc1NC(=O)c1sc2nc(C)cc(C)c2c1N
O=C(CC1SC(=Nc2ccccc2)N(CCc2ccccn2)C1=O)Nc1ccc(F)cc1 (stereo not drawn)
Cc1cc(C)c(S(=O)(=O)Cc2ccccc2)c(Cl)n1
CCc1ccc(/C=C(\C#N)C(=O)NC2CCS(=O)(=O)C2)cc1 (stereo not drawn)
Cn1nc(C(C)(C)C)cc1NC(=O)Nc1cc(Cl)cc(Cl)c1
CC(=O)Nc1ccc(C(=O)NCCCSc2ccccc2)cc1
CCOC(=O)CSc1nc(-c2ccccc2)ns1
CCN(CC)S(=O)(=O)c1ccc(Cl)c(OC)c1
Cc1ccc(C(=O)Nc2c(C(=O)Nc3ccc(C)c(C)c3)sc3nc(C)cc(C)c23)cc1
COc1cc(-c2cc(OC)c3c(C)oc(C)c3c(=O)c2)ccc1OC(=O)c1cccc(C)c1
Cc1ccc(/C=C/C(=O)Nc2ccc3nc(N4CCC(C)CC4)cc(C)c3c2)cc1
CC(=C\c1ccccc1)/C=C1/SC(=S)N(CCC(=O)O)C1=O
C(=N\N(c1ccccc1)c1ccccc1)/c1ccc2c(c1)OCO2

Potency, active:
Cc1ccc(S(=O)(=O)/N=C2\C=C(NS(=O)(=O)c3ccccc3)C(=O)c3ccccc32)cc1 17.8 µM
